Binding data for three molecules are collected here from PMC5620087.

Protein sequences, listed by entry. Tags and fused reporters are not part of them.
UniProt Q80TZ9: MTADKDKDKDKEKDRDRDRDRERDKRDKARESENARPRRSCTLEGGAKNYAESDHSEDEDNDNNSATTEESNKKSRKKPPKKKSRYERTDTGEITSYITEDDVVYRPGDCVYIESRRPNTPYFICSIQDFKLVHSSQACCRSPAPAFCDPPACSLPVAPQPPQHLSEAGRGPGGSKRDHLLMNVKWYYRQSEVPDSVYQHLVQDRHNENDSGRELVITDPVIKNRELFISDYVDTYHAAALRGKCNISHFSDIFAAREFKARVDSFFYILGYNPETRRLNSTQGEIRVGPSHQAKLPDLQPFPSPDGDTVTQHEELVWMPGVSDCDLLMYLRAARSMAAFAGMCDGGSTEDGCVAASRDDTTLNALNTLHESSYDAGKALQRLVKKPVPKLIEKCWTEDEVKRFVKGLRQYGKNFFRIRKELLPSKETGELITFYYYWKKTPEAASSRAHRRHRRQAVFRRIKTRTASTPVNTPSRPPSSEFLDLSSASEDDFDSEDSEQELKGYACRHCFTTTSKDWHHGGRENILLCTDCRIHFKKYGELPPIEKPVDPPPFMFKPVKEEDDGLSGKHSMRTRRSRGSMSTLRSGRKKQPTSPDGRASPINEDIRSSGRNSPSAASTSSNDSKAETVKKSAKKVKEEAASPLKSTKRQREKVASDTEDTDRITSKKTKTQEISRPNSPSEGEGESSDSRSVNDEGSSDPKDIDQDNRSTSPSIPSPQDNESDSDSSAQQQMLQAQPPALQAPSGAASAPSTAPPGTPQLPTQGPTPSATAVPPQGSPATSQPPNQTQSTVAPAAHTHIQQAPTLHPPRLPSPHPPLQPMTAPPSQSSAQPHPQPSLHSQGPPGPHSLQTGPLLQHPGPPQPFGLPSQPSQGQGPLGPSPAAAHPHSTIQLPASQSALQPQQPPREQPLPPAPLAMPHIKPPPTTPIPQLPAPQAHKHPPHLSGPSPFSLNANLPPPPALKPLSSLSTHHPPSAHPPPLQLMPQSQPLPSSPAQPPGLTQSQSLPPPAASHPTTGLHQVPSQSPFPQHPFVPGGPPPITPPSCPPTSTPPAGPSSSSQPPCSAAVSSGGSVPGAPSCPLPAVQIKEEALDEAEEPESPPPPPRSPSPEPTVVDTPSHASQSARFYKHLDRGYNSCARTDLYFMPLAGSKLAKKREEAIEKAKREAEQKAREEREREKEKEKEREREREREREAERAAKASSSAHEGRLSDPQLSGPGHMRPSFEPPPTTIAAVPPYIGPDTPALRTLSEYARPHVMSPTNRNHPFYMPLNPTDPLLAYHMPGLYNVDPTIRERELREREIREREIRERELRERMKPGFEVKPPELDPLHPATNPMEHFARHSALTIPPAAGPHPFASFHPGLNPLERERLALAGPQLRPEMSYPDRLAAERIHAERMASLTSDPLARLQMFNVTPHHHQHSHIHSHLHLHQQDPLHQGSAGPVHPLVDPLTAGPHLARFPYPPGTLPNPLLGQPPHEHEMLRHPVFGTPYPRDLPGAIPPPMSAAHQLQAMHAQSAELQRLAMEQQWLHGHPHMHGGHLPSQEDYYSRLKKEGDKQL
UniProt O09106: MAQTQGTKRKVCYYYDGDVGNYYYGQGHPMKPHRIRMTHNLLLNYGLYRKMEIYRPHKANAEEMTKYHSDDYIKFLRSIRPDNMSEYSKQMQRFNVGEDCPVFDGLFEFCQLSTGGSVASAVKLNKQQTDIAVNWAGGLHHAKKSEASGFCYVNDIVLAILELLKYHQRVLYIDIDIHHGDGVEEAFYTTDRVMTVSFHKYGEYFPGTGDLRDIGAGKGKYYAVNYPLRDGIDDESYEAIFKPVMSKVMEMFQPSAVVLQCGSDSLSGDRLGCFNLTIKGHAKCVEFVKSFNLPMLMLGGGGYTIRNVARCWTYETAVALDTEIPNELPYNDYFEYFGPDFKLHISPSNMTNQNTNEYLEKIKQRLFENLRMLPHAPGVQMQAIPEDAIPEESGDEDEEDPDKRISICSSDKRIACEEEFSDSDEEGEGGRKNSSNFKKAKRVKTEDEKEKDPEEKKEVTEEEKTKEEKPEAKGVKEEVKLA
UniProt P70288: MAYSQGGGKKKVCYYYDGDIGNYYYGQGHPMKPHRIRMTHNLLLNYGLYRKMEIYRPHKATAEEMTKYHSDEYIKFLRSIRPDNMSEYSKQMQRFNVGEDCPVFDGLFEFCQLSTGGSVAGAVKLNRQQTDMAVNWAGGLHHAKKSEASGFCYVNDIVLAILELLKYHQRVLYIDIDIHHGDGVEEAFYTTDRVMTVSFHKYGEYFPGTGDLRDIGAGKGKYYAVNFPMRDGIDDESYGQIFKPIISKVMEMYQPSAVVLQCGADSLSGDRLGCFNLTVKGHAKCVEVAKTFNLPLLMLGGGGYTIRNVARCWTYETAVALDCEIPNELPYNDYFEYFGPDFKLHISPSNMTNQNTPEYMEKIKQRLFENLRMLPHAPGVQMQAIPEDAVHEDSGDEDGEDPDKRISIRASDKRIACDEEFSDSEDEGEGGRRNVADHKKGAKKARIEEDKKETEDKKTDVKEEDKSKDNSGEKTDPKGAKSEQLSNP

No constants are given. Whether binding was seen depends on the method and setting. Binding seen in cells or lysates may run through a third protein. Some results given as binding are weak or reduced against the parent protein; the word gives no strength.

Assay [1] has as its target Rere (endogenous, NIH3T3) (mouse (endogenous in NIH3T3)) (UniProt Q80TZ9). In words: co-IP; Rere antibody on protein G sepharose, NIH3T3 whole cell extract, all proteins endogenous; wash 150 mM KCl; western blot; beads only or IgG as negative control. On the technique in general: Immunoblotting shows a protein as a band on a membrane.
Assay [2] concerns the target Flag-Hdac1 (NIH3T3) (mouse) (UniProt O09106). In words: co-IP; NIH3T3 transfected with Flag-Hdac1 alone or with Rere-HA; anti-Flag (or anti-HA) on Dynabeads; 150 mM NaCl; immunoblot for endogenous Rarα.

Turning to “Hdac1 (endogenous, NIH3T3) (from UniProt O09106 1-482)”, in assay [1], the binding result was “binds”.
On the same count and under the same terms, for “Hdac2 (endogenous, NIH3T3) (from UniProt P70288 1-488)” the value was “binds”.

B1: retinoic acid receptor alpha (endogenous, NIH3T3) (receptor, UniProt P11416 1-462)
chain: MASNSSSCPTPGGGHLNGYPVPPYAFFFPPMLGGLSPPGALTSLQHQLPVSGYSTPSPATIETQSSSSEEIVPSPPSPPPLPRIYKPCFVCQDKSSGYHYGVSACEGCKGFFRRSIQKNMVYTCHRDKNCIINKVTRNRCQYCRLQKCFDVGMSKESVRNDRNKKKKEAPKPECSESYTLTPEVGELIEKVRKAHQETFPALCQLGKYTTNNSSEQRVSLDIDLWDKFSELSTKCIIKTVEFAKQLPGFTTLTIADQITLLKAACLDILILRICTRYTPEQDTMTFSDGLTLNRTQMHNAGFGPLTDLVFAFANQLLPLEMDDAETGLLSAICLICGDRQDLEQPDKVDMLQEPLLEALKVYVRKRRPSRPHMFPKMLMKITDLRSISAKGAERVITLKMEIPGSMPPLIQEMLENSEGLDTLSGQSGGGTRDGGGLAPPPGSCSPSLSPSSHRSSPATQSP
With B1, the binding result in assay [2] is recorded as “binds”.
